Data as given in PubChem BioAssay AID743121 (NCATS, 2013)

Screen: 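Knock-downs that sensitise breast cancer cells to camptothecin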 (primary screen)
Cells: MDA-MB-231 cells, a human breast cancer line
Reagents: single siRNA against human genes, 20 nM siRNA (0.8 pmol per well)
Time to read-out: 120 h (drug added 48 h after transfection, read 72 h later)
Treatment: camptothecin 20 nM (about EC30) for 72 h; vehicle 0.1% DMSO in parallel plates
Read-out: 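CellTiter-Glo ATP signal, scaled to control siRNA as percent viability; sensitisation given as log2 of untreated divided by camptothecin-treated viability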
Direction: log2 vehicle/camptothecin viability: higher = stronger sensitisation to camptothecin
Hit rule: 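Each gene scored by redundant siRNA activity (RSA) over its individual siRNA ratios; a gene is called active at p < 0.001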
The whole screen tested about 26,000 reagents; below is a random part of them. Over the whole deposit, 167 (0.63%) got an active call. 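Calls are per gene from RSA p-values that are not deposited; an individual active-marked siRNA can sensitise only weakly.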 Reagents against one gene are numbered here. Not all columns of the deposit are shown. Reagent sequences are not shown.

target gene | siRNA no. | log2 vehicle/camptothecin viability | Call
PANK1 | 1 | -0.221 | inactive
PANK1 | 2 | -0.378 | inactive
PANK1 | 3 | 0.48 | inactive
PANK1 | 4 | -0.0877 | inactive
MAN2A1 | 1 | -0.00773 | inactive
MAN2A1 | 2 | 0.0425 | inactive
MAN2A1 | 3 | -0.212 | inactive
MAN2A1 | 4 | -0.374 | inactive
GP2 | 1 | -0.202 | inactive
GP2 | 2 | -0.318 | inactive
GP2 | 3 | 0.0539 | inactive
GP2 | 4 | -0.201 | inactive
SIGLEC7 | 1 | 0.377 | inactive
SIGLEC7 | 2 | -0.234 | inactive
SIGLEC7 | 3 | 0.476 | inactive
SIGLEC7 | 4 | -0.605 | inactive
HUWE1 | 1 | -0.106 | inactive
HUWE1 | 2 | 0.0656 | inactive
HUWE1 | 3 | 0.203 | inactive

A stretch of the results above:
target gene | siRNA no. | log2 vehicle/camptothecin viability | Call
PANK1 | 3 | 0.48 | inactive
PANK1 | 4 | -0.0877 | inactive
MAN2A1 | 1 | -0.00773 | inactive
MAN2A1 | 2 | 0.0425 | inactive

The results go on.
target gene | siRNA no. | log2 vehicle/camptothecin viability | Call
BPIFB2 | 1 | -0.231 | inactive
BPIFB2 | 2 | -0.279 | inactive
BPIFB2 | 3 | -0.335 | inactive
BPIFB2 | 4 | 0.0685 | inactive
ALCAM | 1 | 0.913 | inactive
ALCAM | 2 | 0.418 | inactive
ALCAM | 3 | -0.041 | inactive
ALCAM | 4 | -0.135 | inactive
EHD1 | 1 | 0.0803 | inactive
EHD1 | 2 | -0.597 | inactive
EHD1 | 3 | -0.107 | inactive
EHD1 | 4 | 0.664 | inactive
